The values that follow come from publication PMC7819943, “Rice protein-binding microarrays: a tool to detect cis-acting elements near promoter regions in rice”.

By UniProt entry, the sequences of proteins in these tests, tags left out.
UniProt Q0JBA9, entry or part of it: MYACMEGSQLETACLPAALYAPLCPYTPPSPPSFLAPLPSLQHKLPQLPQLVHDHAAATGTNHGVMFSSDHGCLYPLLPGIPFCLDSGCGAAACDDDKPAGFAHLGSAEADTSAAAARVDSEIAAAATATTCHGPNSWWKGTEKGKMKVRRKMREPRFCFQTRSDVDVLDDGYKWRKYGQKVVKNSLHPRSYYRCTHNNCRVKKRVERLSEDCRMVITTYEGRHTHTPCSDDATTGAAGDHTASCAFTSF

The other results are listed elsewhere or left out.

The target of the test is OsWRKY34 (Oryza sativa, UniProt Q0JBA9 1-250). The test is described as follows: protein-binding microarray (RPBM); PBS, 2% BSA, 51.3 ng/ul salmon testes DNA, 50 uM zinc acetate, 200 nM TF, 25 C, 1 h; high values mean tight binding. As to conditions: protein: recombinant; tags: N-terminal polyhistidine and DsRed monomer fusion (pET32a); label: CyDye5-dUTP incorporated in the synthesized complementary strand; 3' TTTTT single-stranded linker to array surface; dsDNA, one strand shown. In short, it runs like this:
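Using Ni–NTA, transcription factors fused N-terminally to polyhistidine and DsRed were purified after expression in E. coli BL21-CodonPlus. These were incubated at 200 nM with a blocked, double-stranded custom Agilent array for 1 h at 25 °C in a buffer containing 50 µM zinc acetate, and the array was washed. The binding signal is per-feature fluorescence intensity (arbitrary units) on an Axon 4000B scanner.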
Turning to “ATCTCCTCCTCATTCGATTCGACGCAACAGTCGCACTATTCGGAGTCACCTAGTGCAG”, the binding signal is 8760 fluorescence intensity (a.u.). The value for “TTTAGCGCACTCATCTTTTTTTTTTTCAACGCTTAACTGTCGGAGTCACCTAGTGCAG” was 9680 fluorescence intensity (a.u.). In the case of “CCCTCTCGTTCTTTCTCGCCTCTCTCTCTCTCTCGCCTCTCGGAGTCACCTAGTGCAG” it was 8560 fluorescence intensity (a.u.); in that of “GAGTATCTTTGCCCCTGCTTCTGCTGCCCAATGTGTTCCTCGGAGTCACCTAGTGCAG”, 9510 fluorescence intensity (a.u.).

As for “TCTCCTCTCTCTCTCTTCTTCCCGGGGAGGCGGGGAGCGGCGGAGTCACCTAGTGCAG”, the binding signal is 11700 fluorescence intensity (a.u.). The value for “TCCTCAGAATTGACCAAGCTGTGCTCCTACCATTTCACATCGGAGTCACCTAGTGCAG” was 9130 fluorescence intensity (a.u.); that for “AAGAATTGCGAATCTTTCCTGTCCGAATCTAGCGGAATATCGGAGTCACCTAGTGCAG” was 8180 fluorescence intensity (a.u.). In the case of “CGTCTCGTCTCGCACTCTCGCATCGTCTTCTCCTTCCTCCCGGAGTCACCTAGTGCAG” it was 9220 fluorescence intensity (a.u.); in that of “TACTGAACTGAAGTATGTCATGTTGCTTTCCTTAATTTCACGGAGTCACCTAGTGCAG”, 8260 fluorescence intensity (a.u.). Consider “TATTGTTTTCTCTACCCCTTTTGCTGAGTTATTAACCTTTCGGAGTCACCTAGTGCAG”, for which the binding signal was 10100 fluorescence intensity (a.u.). Take “GTTTGCATTTTTAGGGAGTAAAACCTTACGTGGTTAGAAACGGAGTCACCTAGTGCAG”: the binding signal was 10400 fluorescence intensity (a.u.).

As for “ACGATGCGGGACGTGGGGTGGGATCGAAAGCAAGAAAGTTCGGAGTCACCTAGTGCAG”, the binding signal is 10800 fluorescence intensity (a.u.). The value for “TACTCATGTACTAGTACCCAACCCCACCAGAATACGCAACCGGAGTCACCTAGTGCAG” was 9110 fluorescence intensity (a.u.); that for “TTCTCATCTCCACTTTCCTAACTCACATATCTCGTTTTCCCGGAGTCACCTAGTGCAG” was 8260 fluorescence intensity (a.u.). As for “GTCATATGATTTCCACGTGTCATTAACCTATGAAAGTGTGCGGAGTCACCTAGTGCAG”, the binding signal is 8510 fluorescence intensity (a.u.). As for “CCCCACCCACACGGCCACACCACCCGATCCACGTGCCTCGCGGAGTCACCTAGTGCAG”, the binding signal is 8510 fluorescence intensity (a.u.).

Turning to “TCTTAGATACCGTATTTGTCCGTCAGTTACGTCTTTTGCTCGGAGTCACCTAGTGCAG”, the binding signal is 9740 fluorescence intensity (a.u.). For the sequence “TGTTTTATACTCCTCCGTCCCATTTTAAGTGCAAACATAACGGAGTCACCTAGTGCAG”, the binding signal is 8960 fluorescence intensity (a.u.). On to “TATTGTTGCAGCTGCCTGCGCCTTCATCTCCTCCCACTTGCGGAGTCACCTAGTGCAG”, for which the binding signal was 10300 fluorescence intensity (a.u.).

As to “TCTTACATATAGTTTTAAGGTGTGTTTGGTTGTTGGCCACCGGAGTCACCTAGTGCAG”, the binding signal is 8180 fluorescence intensity (a.u.).

In the case of “CTCTTTGCGTTACTACCTTTTCCTTTTCCTTCTTTCTTCGCGGAGTCACCTAGTGCAG”, the binding signal is 9710 fluorescence intensity (a.u.). Consider “ATGTTTTTATGCTGCATTCCCCATGTGTGTTTCCTTCTAACGGAGTCACCTAGTGCAG”, for which the binding signal was 19600 fluorescence intensity (a.u.). On to “GCATCACACACTCGTCAGCAACACGTCTTACATATTTCACCGGAGTCACCTAGTGCAG”, for which the binding signal was 10100 fluorescence intensity (a.u.). As for “CATCATCACCACTGCTTCTCCCATGTCTCCATGTTCTGTGCGGAGTCACCTAGTGCAG”, the binding signal was 9640 fluorescence intensity (a.u.).

Regarding “AACAAAAGTTGTTTTGACTCACGCGGTGGCTGTTGTCTGTCGGAGTCACCTAGTGCAG”, the binding signal is 8550 fluorescence intensity (a.u.). The value for “CAAGCAACCCCTGTCTAGCTTCCTCTACCATCCCTTATATCGGAGTCACCTAGTGCAG” was 9900 fluorescence intensity (a.u.).

“CGAGCTAATTATCGCCATCGCCCGCCGCGATCTATATAAACGGAGTCACCTAGTGCAG”: the binding signal is 8480 fluorescence intensity (a.u.). On to “TTTCACAATTCATTCTCAGTACTCAAATCTGGTCAAACAACGGAGTCACCTAGTGCAG”, for which the binding signal was 8200 fluorescence intensity (a.u.). Consider “CACGTGTTGACCAGACCTGACACAAACTCACATTCATTACCGGAGTCACCTAGTGCAG”, for which the binding signal is 9210 fluorescence intensity (a.u.).

Regarding “CTGCTCTTTCTTCTCTCTGCATTCCATTTCATTACTGCCTCGGAGTCACCTAGTGCAG”, the binding signal is 11000 fluorescence intensity (a.u.). In the case of “CCGTTTTTTTTTTCTTCAACCAAAACTACTGCAATTATTACGGAGTCACCTAGTGCAG” it was 8460 fluorescence intensity (a.u.).

As for “AGTAAATACTAACCGTGAAGTACAGTCAACTGTGTGTTGACGGAGTCACCTAGTGCAG”, the binding signal was 8820 fluorescence intensity (a.u.). Take “CCCTTACCCGCCTTATCTTCCACATCCGAGGATTTCTCTCCGGAGTCACCTAGTGCAG”: the binding signal is 12800 fluorescence intensity (a.u.). Regarding “ATTTTTAAAAGTATACTTTTGCCTTTCGATACCTTAATTCCGGAGTCACCTAGTGCAG”, the binding signal was 9300 fluorescence intensity (a.u.). In the case of “CACCGTCACCGCCGCCGCTCATGTCGACGCGGTCCAAGTCCGGAGTCACCTAGTGCAG” it was 11200 fluorescence intensity (a.u.); in that of “GCCGGCGACAAGATACGCGAGTACGCCTCGCGCCGCGCCGCGGAGTCACCTAGTGCAG”, 8370 fluorescence intensity (a.u.); in that of “CCACCACACGCATCACCCGCCCGCCACCCACTCGCGACCCCGGAGTCACCTAGTGCAG”, 11700 fluorescence intensity (a.u.). The value for “CTTGGCTTGGCTCGCCTTCTTGTTTGTGTGGCGGGGAGGACGGAGTCACCTAGTGCAG” was 13100 fluorescence intensity (a.u.). The value for “TTTTTGAGTTTTTTCATGGGTGGTTTGTGTCTCGTACGATCGGAGTCACCTAGTGCAG” was 8660 fluorescence intensity (a.u.).

With “GCTAAACGACTCTGCACCCATCTCGTCTCTATCTCCTCACCGGAGTCACCTAGTGCAG”, the binding signal was 13100 fluorescence intensity (a.u.).

Turning to “AGGGAGCGGGTGTGGGTTGCCGGGCTAAAAAGCCGCCGGCCGGAGTCACCTAGTGCAG”, the binding signal was 8550 fluorescence intensity (a.u.). In the case of “AATGATTGTTGGATAATTCCATTGCTGCCGTATTTTTTTACGGAGTCACCTAGTGCAG” it was 10800 fluorescence intensity (a.u.).
